Data: PubChem BioAssay AID2551 (National Center for Advancing Translational Sciences (NCATS), 2010)
Screen size: about 310,000 compounds; about 17,000 (5.5%) were called active. This list was built around the results that the source calls inconclusive (neither active nor inactive); the mix of calls is not that of the screen. Calls follow the shape of the dose curve; as a rule, active = well fitted inhibition curve with a large enough effect; inconclusive = small, poorly fitted or top-dose-only effect, or effect the other way; inactive = no such curve, though single readings can be large or run the other way. Where the call is inconclusive, the potency comes from a doubtful curve fit.

By UniProt entry, the sequences of proteins in these tests, tags left out. Where a name states a change or a piece, a line headed by the entry shows the natural chain unless it says otherwise.
UniProt P51450: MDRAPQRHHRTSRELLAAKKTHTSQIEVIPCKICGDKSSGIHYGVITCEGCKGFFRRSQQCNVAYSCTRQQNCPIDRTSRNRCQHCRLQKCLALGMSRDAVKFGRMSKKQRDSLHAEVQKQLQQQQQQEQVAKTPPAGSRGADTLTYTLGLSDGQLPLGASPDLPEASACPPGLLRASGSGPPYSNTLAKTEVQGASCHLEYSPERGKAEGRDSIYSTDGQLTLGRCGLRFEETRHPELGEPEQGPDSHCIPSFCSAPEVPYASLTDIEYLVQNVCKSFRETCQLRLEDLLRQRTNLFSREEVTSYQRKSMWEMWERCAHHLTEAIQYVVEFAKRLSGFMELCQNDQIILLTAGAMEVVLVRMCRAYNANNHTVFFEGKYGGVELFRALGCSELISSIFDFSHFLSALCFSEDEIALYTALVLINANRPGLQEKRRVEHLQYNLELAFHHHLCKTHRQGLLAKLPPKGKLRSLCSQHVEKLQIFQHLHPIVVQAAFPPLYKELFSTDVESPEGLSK

Target: Nuclear receptor ROR-gamma (Mus musculus) (UniProt P51450)
Assay: qHTS for inhibitors of ROR gamma transcriptional activity; also: nearly all actives have a fitted effect of over 60% in size
Settings: Drosophila S2 Gal4-RORgamma UAS-luciferase reporter, 20 h; activity change, negative = inhibition: at 53.6 µM (top of the series)
Summary of the method: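 Using a luciferase readout, inhibitors were identified by reduced reporter activity in Drosophila cells coexpressing a copper-inducible Gal4–ROR gamma fusion and UAS-driven Photinus luciferase, incubated 20 hr after 700 uM copper sulfate.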
% is scaled to controls: 0 for no effect and ±100 for the full control effect; potency is read from the fitted curve at half-maximal effect.

Potency, active:
CCOc1cccc(/C=N/N2C(=O)CSC2=S)c1O 3.16 µM
CC(C)NC(=S)NNc1nc2ccccc2s1 2.51 µM
CC(=O)Nc1ccc(-c2cc(C(=O)O)c3ccccc3n2)cc1 10 µM
S=C(NCCC(c1ccccc1)c1ccccc1)Nc1ccccc1Cl 12.6 µM
COc1cc(C(Nc2ccccn2)c2ccc3ccc(C)nc3c2O)cc(OC)c1O (stereo not given) 7.08 µM
O=C(COc1ccc(Cl)cc1Cl)NNC(=S)NCc1ccco1 3.16 µM
CN1CCc2c(sc(NC(=O)c3cc4cc([N+](=O)[O-])ccc4s3)c2C(N)=O)C1 5.62 µM
Brc1ccc(OCc2cn3ccccc3n2)cc1 10 µM

Potency, inconclusive:
Cc1[nH]n(S(=O)(=O)c2ccccc2)c(=O)c1N=Nc1cccc(Cl)c1 25.1 µM [inhibitor, single point]
O=C(Nc1nc2ccsc2c(=O)s1)C1CCC1 0.891 µM [activator, partial curve, poor fit]
Oc1c(C(c2ccccn2)N2CCC(Cc3ccccc3)CC2)cc(Cl)c2cccnc12 (stereo not given) 35.5 µM [inhibitor, single point]
Cc1ccc(C)c(C(=O)COc2ccc(C)nc2[N+](=O)[O-])c1 35.5 µM [inhibitor, single point]
CCOC(=O)c1cccc(NC(=O)Cn2c(CC(=O)NC)nc3ccccc32)c1 11.2 µM [activator, single point]
O=C(NC(=S)NCCc1ccccn1)c1ccco1 35.5 µM [inhibitor, single point]
COc1ccc(N(C(=O)c2snc(C(N)=O)c2N)C(C(=O)NCc2ccc(F)cc2)c2ccc(C)o2)c(OC)c1 (stereo not given) 11.2 µM [activator, single point]
Cn1cnc([N+](=O)[O-])c1Sc1ncccc1N 20 µM [inhibitor, single point]
N#CC(C(=O)Nc1cccc(Cl)c1)=C1Nc2ccccc2N1 22.4 µM [inhibitor, single point]
Cc1ccc(-n2nc(C(N)=O)nc2-c2ccccc2)cc1 5.62 µM [activator, single point]
COc1ccccc1/C=C/C(=O)Nc1cccc(S(=O)(=O)NC2=NCCCCC2)c1 11.2 µM [activator, single point]
NNc1ncnc2scc(-c3ccc(Cl)cc3)c12 20 µM [inhibitor, single point]
CS(=O)(=O)N(CC(=O)Nc1ccccc1C(=O)NCc1ccco1)c1ccc2c(c1)OCCO2 31.6 µM [activator, single point]
O=c1cnnc(N/N=C/c2c[nH]c3ccccc23)[nH]1 35.5 µM [inhibitor, single point]
CN1CCN(NC(=O)c2cc(-c3cccc(Cl)c3)nc3ccccc23)CC1 25.1 µM [inhibitor, single point]
Cc1ccc2cc(CCNC(=O)Cc3cccs3)c(=O)[nH]c2c1 25.1 µM [activator, single point]
C=CCNC(=O)C1CC1(c1ccc(C)cc1)c1ccc(C)cc1 (stereo not given) 35.5 µM [inhibitor, single point]
CCCCCc1ccc(OCCCC[n+]2ccccc2)c(CCCCC)c1 31.6 µM [inhibitor, single point]
CCC1CC=CC2C1C(=O)N(Cc1ccccc1)C2c1cccc([N+](=O)[O-])c1 (stereo not given) 25.1 µM [inhibitor, single point]
COc1ccc(Oc2coc3cc(O)ccc3c2=O)cc1 3.16 µM [inhibitor, partial curve]
OCCCNc1ncnc2scc(-c3ccc(Cl)cc3)c12 35.5 µM [activator, single point]
CC(NC(=O)c1ccc(Br)cc1)c1ccc2c(c1)CCCC2 (stereo not given) 31.6 µM [activator, single point]
Clc1ccc(Oc2nc(Oc3ccc(Cl)cc3)nc(N3CCOCC3)n2)cc1 10 µM [activator, partial curve, poor fit]
CCOC(=O)c1[nH]c(C)c(C(=O)Nc2ccc(C)cc2C)c1C 5.01 µM [activator, single point]
CC1CCCC(NC(=O)c2ccc(CNc3c(N4CCCC4)c(=O)c3=O)cc2)C1C (stereo not given) 0.562 µM [activator, single point]
COc1ccccc1N1C(=O)c2ccc(C(=O)Nc3nccs3)cc2C1=O 35.5 µM [inhibitor, single point]
COc1ccccc1CCCNC(=O)C1CCC(=O)N(CCc2ccc(Cl)cc2)C1 (stereo not given) 3.98 µM [activator, full curve, poor fit]

An excerpt from above in order of SMILES length, low to high:
Potency, inconclusive:
CC(NC(=O)c1ccc(Br)cc1)c1ccc2c(c1)CCCC2 (stereo not given) 31.6 µM [activator, single point]
Cc1[nH]n(S(=O)(=O)c2ccccc2)c(=O)c1N=Nc1cccc(Cl)c1 25.1 µM [inhibitor, single point]
CS(=O)(=O)N(CC(=O)Nc1ccccc1C(=O)NCc1ccco1)c1ccc2c(c1)OCCO2 31.6 µM [activator, single point]

Next part.

Activity change, negative = inhibition, inactive:
O=C(O)Cn1cc(CN2CCOCC2)c2ccccc21 2.01% [at 1.91 µM]
N#CC1=C(SCC(=O)c2cc3ccccc3oc2=O)NC(=O)C(C#N)C12CCCC2 (stereo not given) 43.9%
COc1ccc(CNC(=O)Cc2c[nH]c3ccccc23)cc1OC -2.49%
O=C1SC(Cc2ccccc2)C(=O)N1c1ccccc1 (stereo not given) -3.61%
NC1=NC[C@H](Cc2ccccc2)N1CCCCC1CCCCC1 15.9%
CC/C=C1/OC(=O)c2ccccc21 13%
CCOc1ccc(N(CC(=O)NC2CC2)S(=O)(=O)c2ccc(C)cc2)cc1 -22.7%
O=C(c1ccc2nc(Cc3ccccc3F)oc2c1)N1CCCC1 1.24%
Cc1sc2nc(CSc3ccccc3)nc(N3CCN(C)CC3)c2c1C -5.77%
O=C(COC(=O)CNC(=O)c1ccccc1)Nc1ccc2c(c1)OCO2 -28.2%
Cc1cnc(NC(=O)CN2CCN(c3ccccn3)CC2)s1 27.3%
Clc1ccc(OCCCN2CCc3ccccc3C2)c(Br)c1 -13.1%
CCCCC(=O)Nc1ncc(Br)s1 38.1%
O=c1cc2c(=O)oc3cc(O)c(O)oc3c2c(O)c1O -27.2%
CCOc1ccc(CCNC(=O)C2CCCN(S(C)(=O)=O)C2)cc1OCC (stereo not given) 34.8%
